# Literature values, collected in PMC9355975, “Functional human cell-based vascularised cardiac tissue model for biomedical research and testing” (Scientific Reports, 2022).
# Design: method as in PMID 24052561, PMID 27701120, PMID 27956204, PMID 22972846, PMID 3988675
# Details: free plasma concentration from the literature; cited from earlier work
smiles,measurement,value
Cc1cccc(CCN2CCC(C(=O)c3ccc(NS(C)(=O)=O)cc3)CC2)n1 [E-4031],Therapeutic concentration,8.4[60] nM
